Assay results from ChEMBL document CHEMBL3243918, “Synthesis and adrenergic beta-blocking activity of some 1,3-benzodioxole derivatives” (J Med Chem, 1977).

Test: Antagonist activity at guinea pig atrial beta adrenergic receptor assessed as isometric contractions by force displacement transducer
Format: tissue-based, Cavia porcellus, Cardiac atrium

CC(C)NCC(O)COc1cccc2ccccc12 (stereo unspecified) [PROPRANOLOL]
pA2: 8.2
